From article PMC8700327
No constants are given. Whether binding was seen depends on the method and setting. In cells and extracts the contact can be indirect. These calls come from enrichment with a bait or labelling near it, and not all partners need be listed.

Sequences of proteins named here, by UniProt entry; tags and fusion partners are left off.
UniProt Q86YP4: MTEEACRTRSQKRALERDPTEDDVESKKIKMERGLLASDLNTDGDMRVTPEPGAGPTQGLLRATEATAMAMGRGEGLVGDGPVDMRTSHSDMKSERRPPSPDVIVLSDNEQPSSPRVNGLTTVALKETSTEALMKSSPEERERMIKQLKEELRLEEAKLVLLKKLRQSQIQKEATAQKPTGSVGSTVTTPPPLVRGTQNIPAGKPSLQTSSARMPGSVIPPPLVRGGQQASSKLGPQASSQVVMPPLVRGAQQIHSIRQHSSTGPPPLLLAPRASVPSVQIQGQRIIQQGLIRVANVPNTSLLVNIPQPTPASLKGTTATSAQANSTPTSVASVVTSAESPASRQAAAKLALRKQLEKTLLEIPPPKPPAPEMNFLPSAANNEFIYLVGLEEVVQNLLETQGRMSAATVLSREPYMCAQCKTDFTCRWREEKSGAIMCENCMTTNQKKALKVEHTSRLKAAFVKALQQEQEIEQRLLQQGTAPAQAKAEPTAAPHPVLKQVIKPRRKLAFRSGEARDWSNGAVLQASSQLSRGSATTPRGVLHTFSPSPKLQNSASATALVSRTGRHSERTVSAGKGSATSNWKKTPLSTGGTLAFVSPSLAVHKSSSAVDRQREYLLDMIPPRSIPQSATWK

Target: Flag-p66α (GATA zinc finger domain-containing protein 2A) (UniProt Q86YP4)
Test: affinity purification with mass spectrometry; lysate of HEK-293T cells stably expressing Flag-p66α; anti-Flag M2 agarose beads; washed with BC500 (500 mM KCl, 0.2% NP-40); eluted with Flag peptide; proteins between 40 and 55 kDa cut from the gel and identified by mass spectrometry

binding: binds
Substance: endogenous p53 (from UniProt P04637 1-393)
